This passage reports binding results from US20200407452A1 (published 2020).

The chains behind the UniProt entries cited, without tags or fusion partners. Where a name states a change or a piece, a line headed by the entry shows the natural chain unless it says otherwise. Residues count along the entry.
UniProt P08581: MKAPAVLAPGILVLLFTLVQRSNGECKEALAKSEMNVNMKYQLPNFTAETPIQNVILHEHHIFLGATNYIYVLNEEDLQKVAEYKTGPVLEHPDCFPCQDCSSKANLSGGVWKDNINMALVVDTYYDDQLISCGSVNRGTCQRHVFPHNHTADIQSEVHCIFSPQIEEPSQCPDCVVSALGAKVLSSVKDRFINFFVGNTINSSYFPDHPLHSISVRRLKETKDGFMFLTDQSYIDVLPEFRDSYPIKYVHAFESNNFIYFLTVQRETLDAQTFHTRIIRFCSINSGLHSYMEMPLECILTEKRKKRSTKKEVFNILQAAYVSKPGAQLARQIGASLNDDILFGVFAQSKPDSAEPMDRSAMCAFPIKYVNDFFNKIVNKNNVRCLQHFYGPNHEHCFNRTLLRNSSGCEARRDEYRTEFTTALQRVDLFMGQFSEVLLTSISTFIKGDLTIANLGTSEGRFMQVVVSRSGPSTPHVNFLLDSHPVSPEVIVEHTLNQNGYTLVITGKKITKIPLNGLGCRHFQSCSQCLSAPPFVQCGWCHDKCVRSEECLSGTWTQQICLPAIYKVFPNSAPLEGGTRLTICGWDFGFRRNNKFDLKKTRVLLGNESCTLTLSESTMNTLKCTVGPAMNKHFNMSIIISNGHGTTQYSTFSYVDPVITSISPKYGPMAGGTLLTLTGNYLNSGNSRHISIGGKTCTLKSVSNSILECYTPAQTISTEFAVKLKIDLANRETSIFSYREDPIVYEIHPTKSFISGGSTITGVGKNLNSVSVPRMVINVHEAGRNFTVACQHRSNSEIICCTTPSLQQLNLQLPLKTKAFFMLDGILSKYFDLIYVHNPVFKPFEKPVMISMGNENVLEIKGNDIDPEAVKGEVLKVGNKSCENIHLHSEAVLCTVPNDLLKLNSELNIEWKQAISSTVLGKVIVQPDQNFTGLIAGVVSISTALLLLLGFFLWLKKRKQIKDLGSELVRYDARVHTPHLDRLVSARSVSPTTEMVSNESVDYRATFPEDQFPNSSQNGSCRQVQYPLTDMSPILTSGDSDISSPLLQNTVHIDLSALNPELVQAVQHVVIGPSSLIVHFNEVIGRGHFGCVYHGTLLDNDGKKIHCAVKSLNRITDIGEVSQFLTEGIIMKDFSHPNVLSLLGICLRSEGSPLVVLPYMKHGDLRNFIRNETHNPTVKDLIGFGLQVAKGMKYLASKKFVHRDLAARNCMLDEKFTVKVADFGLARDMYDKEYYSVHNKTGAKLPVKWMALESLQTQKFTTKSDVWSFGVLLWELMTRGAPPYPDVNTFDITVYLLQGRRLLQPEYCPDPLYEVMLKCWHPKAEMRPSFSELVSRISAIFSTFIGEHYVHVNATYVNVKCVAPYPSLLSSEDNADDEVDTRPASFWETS
SEMA-PSI-IPT 1-2 (MET ECD lacking IPT domains 3 and 4): residues 25-741 of P08581
SEMA-PSI (MET ECD lacking IPT domains 1-4): residues 25-562 of P08581
isolated SEMA domain of human MET: residues 27-515 of P08581

These are yes or no findings as the source states them, for the method shown. Some entries that bind do so weakly or less than the wild type.

Holding throughout (assay): ELISA, engineered MET protein coated
Assay [1] addresses SEMA-PSI (MET ECD lacking IPT domains 1-4) (human) (UniProt P08581).
The target of assay [2] is SEMA-PSI-IPT 1-2 (MET ECD lacking IPT domains 3 and 4) (human) (UniProt P08581).
Assay [3] addresses isolated SEMA domain of human MET (human) (UniProt P08581).

B1: 71G3 chimeric llama-human IgG1 mAb (antibody, V domains shown)
VH: QVQLVESGGGLVQPGGSLRVSCAASGFTFSTYYMSWVRQAPGKGLEWVSDIRTDGGTYYADSVKGRFTMSRDNAKNTLYLQMNSLKPEDTALYYCARTRIFPSGYDYWGQGTQVTVSS
VL: QAVVTQEPSLSVSPGGTVTLTCGLSSGSVTTSNYPGWFQQTPGQAPRTLIYNTNSRHSGVPSRFSGSISGNKAALTIMGAQPEDEADYYCSLYPGSTTVFGGGTHLTVL
notes: human IgG1 CH1-CH2-CH3 and human CL lambda; also called 71G3 Human IgG1/lambda
As to B1, the binding entry in assay [1] and in assay [2] was “binds” throughout.

B2: 76G7 chimeric llama-human IgG1 mAb (antibody, V domains shown)
VH: QVQLVESGGNLVQPGGSLRLSCAASGFTFSNYYMSWVRQAPGKGLEWVSDIYSDGSTTWYSDSVKGRFTISRDNAKNTLSLQMNSLKSEDTAVYYCARVKIYPGGYDAWGQGTQVTVSS
VL: QAGLTQPPSVSGSPGKTVTISCAGNSSDVGYGNYVSWYQQFPGMAPKLLIYLVNKRASGITDRFSGSKSGNTASLTISGLQSEDEADYYCASYTGSNNIVFGGGTHLTVL
notes: human IgG1 CH1-CH2-CH3 and human CL lambda
As for B2, the binding entry in assay [1] and in assay [2] was “binds” each time.

B3: 71D6 chimeric llama-human IgG1 mAb (antibody, V domains shown)
VH: ELQLVESGGGLVQPGGSLRLSCAASGFTFSSYGMSWVRQAPGKGLEWVSAINSYGGSTSYADSVKGRFTISRDNAKNTLYLQMNSLKPEDTAVYYCAKEVRADLSRYNDYESYDYWGQGTQVTVSS
VL: QPVLNQPSALSVTLGQTAKITCQGGSLGARYAHWYQQKPGQAPVLVIYDDDSRPSGIPERFSGSSSGGTATLTISGAQAEDEGDYYCQSADSSGSVFGGGTHLTVL
notes: human IgG1 CH1-CH2-CH3 and human CL lambda; also called 71D6 Human IgG1/lambda
B3: the binding result in assay [1], in assay [2] and in assay [3] was “binds” in each case.

B4: 71C3 chimeric llama-human IgG1 mAb (antibody, V domains shown)
VH: QLQLVESGGGLVQPGGSLRLSCAASGFTFSSHAMSWVRQAPGKGLEWVSAINSGGGSTSYADSVKGRFTISRDNAKNTLYLQMNSLKPEDTAVYYCAKELRFDLARYTDYEAWDYWGQGTQVTVSS
VL: SYELTQPSALSVTLGQTAKITCQGGSLGSSYAHWYQQKPGQAPVLVIYDDDSRPSGIPERFSGSSSGGTATLTISGAQAEDEGDYYCQSADSSGNAAVFGGGTHLTVL
notes: as for B2
Consider B4, for which the binding result in assay [1], in assay [2] and in assay [3] was “binds” in each case.

B5: 71D4 chimeric llama-human IgG1 mAb (antibody, V domains shown)
VH: ELQLVESGGGLVQPGGSLRLSCAASGFTFSGYGMSWVRQAPGKGLEWVSDINSGGGSTSYADSVKGRFTISRDNAKNTLYLQMNSLKPEDTAVYYCAKDMRLYLARYNDYEAWDYWGQGTQVTVSS
VL: SSALTQPSALSVTLGQTAKITCQGGSLGSSYAHWYQQKPGQAPVLVIYDDDSRPSGIPERFSGSSSGGTATLTISGAQAEDEGDYYCQSADSSGNAAVFGGGTHLTVL
notes: as for B2
In the case of B5, the binding result in assay [1], in assay [2] and in assay [3] was “binds” each time.

B6: 76H10 chimeric llama-human IgG1 mAb (antibody, V domains shown)
VH: QLQLVESGGGLVQPGGSLRVSCTASGFTFNTYYMTWVRQAPGKGLEWVSDINSGGGTYYADSVKGRFTISRDNAKNTLYLQMNSLKPEDTALYYCVRVRIWPVGYDYWGQGTQVTVSS
VL: QAVVTQEPSLSVSPGGTVTLTCGLSSGSVTTSNYPGWFQQTPGQAPRTLIYNTNNRHSGVPSRFSGSISGNKAALTITGAQPEDEADYYCSLYTGSYTTVFGGGTHLTVL
notes: as for B2
For B6, the binding result in assay [1] and in assay [2] was “binds” throughout.

B7: 74C8 chimeric llama-human IgG1 mAb (antibody, V domains shown)
VH: EVQLVESGGGLVQPGGSLRLSCAASGFTFRNYHMSWVRQVPGKGFEWISDINSAGGSTYYADSVKGRFTISRDNAKNTLYLEMNSLKPEDTALYYCARVNVWGVNYWGKGTLVSVSS
VL: QTVVTQEPSLSVSPGGTVTLTCGLSSGSVTTSNYPGWFQQTPGQAPRTLIYNTNSRHSGVPSRFSGSISGNKAALTITGAQPEDEADYYCSLYPGSYTNVFGGGTHLTVL
notes: as for B2
As to B7, the binding entry in assay [1], in assay [2] and in assay [3] was “binds” in each case.

B8: 71G2 chimeric llama-human IgG1 mAb (antibody, V domains shown)
VH: EVQLQESGGGLVQPGGSLRLSCAASGFTFSIYDMSWVRQAPGKGLEWVSTINSDGSSTSYVDSVKGRFTISRDNAKNTLYLQMNSLKPEDTAVYYCAKVYGSTWDVGPMGYGMDYWGKGTLVTVSS
VL: SSALTQPSALSVSLGQTARITCQGGSLGSSYAHWYQQKPGQAPVLVIYGDDSRPSGIPERFSGSSSGGTATLTISGAQAEDEDDYYCQSTDSSGNTVFGGGTRLTVL
notes: human IgG1 CH1-CH2-CH3 and human CL lambda; also called 71G2 Human IgG1/lambda
As to B8, the binding result in assay [1], in assay [2] and in assay [3] was “binds” in each case.

B9: 71A3 chimeric llama-human IgG1 mAb (antibody, V domains shown)
VH: EVQLVESGGGLVQPGGSLRLSCAASGFSFKDYDITWVRQAPGKGLEWVSTITSRSGSTSYVDSVKGRFTISGDNAKNTLYLQMNSLKPEDTAVYYCAKVYATTWDVGPLGYGMDYWGKGTLVTVSS
VL: SYELTQPSALSVTLGQTAKITCQGGSLGSSYAHWYQQKPGQAPVLVIYDDDSRPSGIPERFSGSSSGGTATLTISGAQAEDEGDYYCQSADSSGNAAVFGGGTHLTVL
notes: as for B2
Turning to B9, the binding result in assay [1], in assay [2] and in assay [3] was “binds” in each case.

B10: 72F8 chimeric llama-human IgG1 mAb (antibody, V domains shown)
VH: ELQLVESGGGLVQPGGSLRLSCAASGFTFSNYVMSWVRQAPGKGLEWVSDTNSGGSTSYADSVKGRFTISRDNAKNTLYLQMNSLKPEDTALYYCARSFFYGMNYWGKGTQVTVSS
VL: QSALTQPPSLSASPGSSVRLTCTLSSGNNIGSYDISWYQQKAGSPPRYLLNYYTDSRKHQDSGVPSRFSGSKDASANAGLLLISGLQPEDEADYYCSAYKSGSYRWVFGGGTHVTVL
notes: as for B2
With B10, the binding result in assay [1], in assay [2] and in assay [3] was “binds” throughout.

B11: 71G12 chimeric llama-human IgG1 mAb (antibody, V domains shown)
VH: QVQLQESGGDLVQPGGSLRVSCVVSGFTFSRYYMSWVRQAPGKGLEWVSSIDSYGYSTYYTDSVKGRFTISRDNAKNTLYLQMNSLKPEDTALYYCARAKTTWSYDYWGQGTQVTVSS
VL: EIVLTQSPSSVTASVGGKVTINCKSSQSVFIASNQKTYLNWYQQRPGQSPRLVISYASTRESGIPDRFSGSGSTTDFTLTISSVQPEDAAVYYCQQAYSHPTFGQGTKVELK
notes: human IgG1 CH1-CH2-CH3 and human CL kappa
Take B11: the binding entry in assay [1] and in assay [2] was “binds” each time.
